# The other results are listed elsewhere or left out. Most entries show no effect beyond the scatter of the controls.
# Amino acid sequences for entries named in this document (tags omitted). A change or cut given only in a name is not applied to a line headed by its entry.
# UniProt Q9Y587: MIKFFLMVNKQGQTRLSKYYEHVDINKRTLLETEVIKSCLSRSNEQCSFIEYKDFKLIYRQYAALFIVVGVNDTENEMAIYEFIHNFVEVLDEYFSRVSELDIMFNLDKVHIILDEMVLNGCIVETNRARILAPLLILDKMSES
# UniProt Q9Y467: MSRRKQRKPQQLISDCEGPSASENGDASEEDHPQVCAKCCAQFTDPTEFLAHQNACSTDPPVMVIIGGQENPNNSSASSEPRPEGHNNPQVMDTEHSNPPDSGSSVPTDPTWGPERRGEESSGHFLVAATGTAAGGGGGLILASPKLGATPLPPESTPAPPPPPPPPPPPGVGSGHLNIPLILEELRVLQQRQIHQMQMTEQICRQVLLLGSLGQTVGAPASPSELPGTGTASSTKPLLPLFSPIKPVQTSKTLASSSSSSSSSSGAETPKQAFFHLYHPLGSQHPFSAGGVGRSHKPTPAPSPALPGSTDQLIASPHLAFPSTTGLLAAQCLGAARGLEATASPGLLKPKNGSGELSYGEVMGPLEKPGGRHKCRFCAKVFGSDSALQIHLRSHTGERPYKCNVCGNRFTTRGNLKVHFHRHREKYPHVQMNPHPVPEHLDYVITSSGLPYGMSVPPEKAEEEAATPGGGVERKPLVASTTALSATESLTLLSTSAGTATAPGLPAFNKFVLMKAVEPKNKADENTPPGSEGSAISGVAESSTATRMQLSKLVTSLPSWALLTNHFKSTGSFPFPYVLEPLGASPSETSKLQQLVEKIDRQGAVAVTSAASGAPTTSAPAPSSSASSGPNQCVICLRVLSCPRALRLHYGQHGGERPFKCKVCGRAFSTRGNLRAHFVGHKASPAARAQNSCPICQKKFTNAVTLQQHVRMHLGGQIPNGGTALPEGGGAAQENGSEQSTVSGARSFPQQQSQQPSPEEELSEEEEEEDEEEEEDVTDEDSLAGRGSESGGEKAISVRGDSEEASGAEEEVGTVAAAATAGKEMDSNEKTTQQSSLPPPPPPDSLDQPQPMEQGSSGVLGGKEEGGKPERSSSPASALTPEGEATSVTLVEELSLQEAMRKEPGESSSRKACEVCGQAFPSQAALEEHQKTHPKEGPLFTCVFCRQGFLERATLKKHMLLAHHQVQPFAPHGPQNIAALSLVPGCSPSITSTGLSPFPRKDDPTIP
# UniProt Q9Y5W7: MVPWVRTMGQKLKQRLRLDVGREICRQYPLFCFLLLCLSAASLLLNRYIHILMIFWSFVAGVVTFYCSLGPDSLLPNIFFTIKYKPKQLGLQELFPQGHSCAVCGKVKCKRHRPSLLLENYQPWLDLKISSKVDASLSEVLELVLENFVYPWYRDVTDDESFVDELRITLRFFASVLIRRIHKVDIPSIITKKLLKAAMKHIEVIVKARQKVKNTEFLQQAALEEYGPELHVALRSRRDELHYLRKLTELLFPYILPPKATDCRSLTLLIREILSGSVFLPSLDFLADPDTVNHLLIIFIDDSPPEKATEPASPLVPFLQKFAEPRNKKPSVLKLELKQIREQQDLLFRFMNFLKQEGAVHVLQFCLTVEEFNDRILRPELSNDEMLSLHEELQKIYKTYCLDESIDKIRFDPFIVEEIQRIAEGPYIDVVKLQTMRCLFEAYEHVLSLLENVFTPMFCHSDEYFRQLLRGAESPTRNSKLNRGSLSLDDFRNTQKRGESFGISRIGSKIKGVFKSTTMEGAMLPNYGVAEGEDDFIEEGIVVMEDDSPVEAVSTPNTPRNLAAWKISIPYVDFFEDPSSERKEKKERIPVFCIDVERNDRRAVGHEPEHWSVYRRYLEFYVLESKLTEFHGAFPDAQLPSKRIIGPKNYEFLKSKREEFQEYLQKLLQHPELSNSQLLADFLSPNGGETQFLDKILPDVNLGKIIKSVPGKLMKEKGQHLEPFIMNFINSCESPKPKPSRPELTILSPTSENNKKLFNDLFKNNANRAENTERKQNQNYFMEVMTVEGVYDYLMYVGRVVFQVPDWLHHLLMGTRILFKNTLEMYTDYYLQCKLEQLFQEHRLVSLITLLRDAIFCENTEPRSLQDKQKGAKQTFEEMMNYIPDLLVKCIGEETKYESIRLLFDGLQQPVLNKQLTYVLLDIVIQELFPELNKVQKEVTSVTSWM
# UniProt Q9Y5Z9: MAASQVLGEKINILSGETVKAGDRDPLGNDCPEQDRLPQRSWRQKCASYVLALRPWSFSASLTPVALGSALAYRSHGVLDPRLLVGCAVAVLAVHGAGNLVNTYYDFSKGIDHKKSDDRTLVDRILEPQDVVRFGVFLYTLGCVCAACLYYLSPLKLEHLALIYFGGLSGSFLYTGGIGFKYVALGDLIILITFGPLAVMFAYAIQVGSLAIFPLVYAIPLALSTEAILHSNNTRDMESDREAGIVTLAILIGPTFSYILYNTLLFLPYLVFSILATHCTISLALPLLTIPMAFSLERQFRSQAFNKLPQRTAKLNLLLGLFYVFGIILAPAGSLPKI
# UniProt Q9Y5J9: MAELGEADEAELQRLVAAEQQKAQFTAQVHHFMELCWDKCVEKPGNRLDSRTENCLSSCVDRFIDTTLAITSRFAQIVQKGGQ
# UniProt Q9Y446: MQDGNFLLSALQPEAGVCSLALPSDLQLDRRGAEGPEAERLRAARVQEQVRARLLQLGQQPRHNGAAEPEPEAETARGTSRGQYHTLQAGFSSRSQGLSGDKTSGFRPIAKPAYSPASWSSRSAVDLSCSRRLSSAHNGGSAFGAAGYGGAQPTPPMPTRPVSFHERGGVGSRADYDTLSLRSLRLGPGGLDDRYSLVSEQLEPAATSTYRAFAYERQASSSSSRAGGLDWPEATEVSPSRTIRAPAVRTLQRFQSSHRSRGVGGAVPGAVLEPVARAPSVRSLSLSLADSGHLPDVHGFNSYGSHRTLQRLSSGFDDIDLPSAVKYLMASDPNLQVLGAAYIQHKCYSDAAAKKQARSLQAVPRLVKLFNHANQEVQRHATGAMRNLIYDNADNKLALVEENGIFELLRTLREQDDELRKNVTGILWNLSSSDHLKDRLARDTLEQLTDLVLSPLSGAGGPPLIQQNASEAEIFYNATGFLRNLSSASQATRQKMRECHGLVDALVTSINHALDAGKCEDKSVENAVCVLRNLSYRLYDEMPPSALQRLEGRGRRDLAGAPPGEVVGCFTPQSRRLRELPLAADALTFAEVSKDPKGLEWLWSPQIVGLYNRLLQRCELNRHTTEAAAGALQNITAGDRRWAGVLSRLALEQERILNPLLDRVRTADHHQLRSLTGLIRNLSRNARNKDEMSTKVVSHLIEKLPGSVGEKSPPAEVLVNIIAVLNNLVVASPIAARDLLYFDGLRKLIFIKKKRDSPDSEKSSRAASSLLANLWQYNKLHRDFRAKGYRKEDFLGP
# UniProt Q9Y6R0: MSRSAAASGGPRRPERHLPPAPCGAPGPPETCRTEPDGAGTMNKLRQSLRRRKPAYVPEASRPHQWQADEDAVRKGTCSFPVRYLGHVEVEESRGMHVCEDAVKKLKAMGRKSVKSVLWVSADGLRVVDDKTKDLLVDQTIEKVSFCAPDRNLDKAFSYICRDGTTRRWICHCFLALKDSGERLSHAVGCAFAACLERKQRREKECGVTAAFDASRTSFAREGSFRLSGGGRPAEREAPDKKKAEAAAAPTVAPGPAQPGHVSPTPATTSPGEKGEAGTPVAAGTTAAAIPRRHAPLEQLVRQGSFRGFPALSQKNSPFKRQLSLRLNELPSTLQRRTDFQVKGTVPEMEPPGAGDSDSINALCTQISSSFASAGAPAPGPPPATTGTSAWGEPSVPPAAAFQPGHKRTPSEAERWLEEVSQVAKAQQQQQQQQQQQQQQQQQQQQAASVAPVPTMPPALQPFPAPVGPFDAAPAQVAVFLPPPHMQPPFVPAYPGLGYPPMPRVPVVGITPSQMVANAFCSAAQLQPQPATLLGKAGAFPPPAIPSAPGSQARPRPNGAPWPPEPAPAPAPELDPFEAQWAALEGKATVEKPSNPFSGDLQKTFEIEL
# UniProt Q9Y4E8: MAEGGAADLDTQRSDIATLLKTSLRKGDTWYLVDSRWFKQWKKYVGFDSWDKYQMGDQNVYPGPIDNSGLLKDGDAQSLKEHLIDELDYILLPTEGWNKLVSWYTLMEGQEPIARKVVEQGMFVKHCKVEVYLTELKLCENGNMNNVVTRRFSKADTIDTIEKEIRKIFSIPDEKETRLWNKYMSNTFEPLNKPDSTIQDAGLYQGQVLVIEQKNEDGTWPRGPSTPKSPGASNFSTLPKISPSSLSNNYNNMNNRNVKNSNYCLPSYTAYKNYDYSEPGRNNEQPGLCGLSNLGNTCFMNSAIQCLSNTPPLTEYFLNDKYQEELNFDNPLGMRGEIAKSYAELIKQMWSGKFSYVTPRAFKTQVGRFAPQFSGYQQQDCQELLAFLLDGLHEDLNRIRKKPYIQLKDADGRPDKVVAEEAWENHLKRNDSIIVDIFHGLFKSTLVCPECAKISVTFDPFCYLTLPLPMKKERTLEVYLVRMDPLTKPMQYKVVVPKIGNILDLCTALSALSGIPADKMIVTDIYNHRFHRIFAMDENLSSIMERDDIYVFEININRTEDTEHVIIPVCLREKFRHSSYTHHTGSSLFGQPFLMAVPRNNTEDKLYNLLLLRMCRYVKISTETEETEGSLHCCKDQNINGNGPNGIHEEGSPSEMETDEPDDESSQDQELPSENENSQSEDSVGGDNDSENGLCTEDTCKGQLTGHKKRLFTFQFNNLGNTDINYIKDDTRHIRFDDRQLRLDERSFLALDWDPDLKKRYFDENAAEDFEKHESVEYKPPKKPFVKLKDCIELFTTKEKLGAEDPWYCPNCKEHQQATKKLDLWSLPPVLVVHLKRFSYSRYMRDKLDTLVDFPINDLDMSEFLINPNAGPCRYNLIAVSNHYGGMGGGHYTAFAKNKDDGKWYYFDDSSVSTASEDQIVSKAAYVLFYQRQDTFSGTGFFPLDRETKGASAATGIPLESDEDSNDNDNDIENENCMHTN
# UniProt Q9Y6B2: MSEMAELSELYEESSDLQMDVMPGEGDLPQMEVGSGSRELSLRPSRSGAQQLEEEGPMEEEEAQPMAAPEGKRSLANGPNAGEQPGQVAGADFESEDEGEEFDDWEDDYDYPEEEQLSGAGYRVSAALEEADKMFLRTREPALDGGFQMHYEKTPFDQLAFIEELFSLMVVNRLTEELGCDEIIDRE
# UniProt Q9Y6X2: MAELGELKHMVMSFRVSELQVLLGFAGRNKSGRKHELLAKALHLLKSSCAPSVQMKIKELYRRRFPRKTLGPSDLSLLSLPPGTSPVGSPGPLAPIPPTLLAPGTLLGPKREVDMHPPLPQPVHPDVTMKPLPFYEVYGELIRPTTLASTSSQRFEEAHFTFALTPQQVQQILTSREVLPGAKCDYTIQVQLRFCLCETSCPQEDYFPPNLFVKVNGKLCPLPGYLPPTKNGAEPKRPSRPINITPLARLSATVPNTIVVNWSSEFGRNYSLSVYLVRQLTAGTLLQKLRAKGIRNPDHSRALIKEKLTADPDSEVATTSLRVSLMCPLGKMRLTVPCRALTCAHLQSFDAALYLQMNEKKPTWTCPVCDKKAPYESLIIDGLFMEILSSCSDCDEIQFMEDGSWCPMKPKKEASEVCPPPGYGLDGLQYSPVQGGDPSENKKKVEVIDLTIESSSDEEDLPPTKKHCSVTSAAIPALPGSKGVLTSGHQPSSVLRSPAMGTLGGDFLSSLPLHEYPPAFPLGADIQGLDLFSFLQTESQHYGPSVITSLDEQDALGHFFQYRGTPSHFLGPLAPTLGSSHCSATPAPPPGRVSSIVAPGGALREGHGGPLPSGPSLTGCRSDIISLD
# Compound: CN[C@@H]1C[C@H]2O[C@@](C)([C@@H]1OC)n1c3ccccc3c3c4c(c5c6ccccc6n2c5c31)C(=O)NC4 [staurosporine]
# Experiment: log2 fold change of tryptic peptide abundance, ligand vs vehicle (limited proteolysis) (log2 ratio); higher = more trypsin-susceptible (destabilized)
# Settings: ligand concentration: 20 uM; sample: K562 cleared lysate; digestion: 4 min, 22 C (HT-PELSA RT4min, Orbitrap Astral)
row,Target,log2 fold change
1,"AP4S1 (peptide sequence: ILAPLLILDK, peptide start residue: 131) (UniProt Q9Y587)",-0.158
2,"SALL2 (peptide sequence: QAFFHLYHPLGSQHPFSAGGVGR, peptide start residue: 272) (UniProt Q9Y467)",-0.234
3,"SNX14 (peptide sequence: LFNDLFK, peptide start residue: 757) (UniProt Q9Y5W7)",0.322
4,"UBIAD1 (peptide sequence: INILSGETVK, peptide start residue: 11) (UniProt Q9Y5Z9)",0.34
5,"TIMM8B (peptide sequence: FIDTTLAITSR, peptide start residue: 63) (UniProt Q9Y5J9)",-0.149
6,"PKP3 (peptide sequence: LLQLGQQPR, peptide start residue: 54) (UniProt Q9Y446)",0.108
7,"NUMBL (peptide sequence: EKECGVTAAFDASR, peptide start residue: 203) (UniProt Q9Y6R0)",-0.323
8,"USP15 (peptide sequence: MDPLTKPMQYK, peptide start residue: 483) (UniProt Q9Y4E8)",0.317
9,"EID1 (peptide sequence: VSAALEEADKMFLR, peptide start residue: 124) (UniProt Q9Y6B2)",-0.157
10,"UniProt Q9Y6X2 (peptide sequence: VSELQVLLGFAGR, peptide start residue: 16)",-0.386

# Shown with tabs: entries from further up
row	Target	log2 fold change
5	TIMM8B (peptide sequence: FIDTTLAITSR, peptide start residue: 63) (UniProt Q9Y5J9)	-0.149
6	PKP3 (peptide sequence: LLQLGQQPR, peptide start residue: 54) (UniProt Q9Y446)	0.108
